Source: PubChem BioAssay AID686943 (Drosophila RNAi Screening Center, 2013)

Test: 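Knockdowns that increase or decrease active ERK after insulin receptor stimulation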 (primary screen)
System: Drosophila S2R+ haemocyte-like cells expressing YFP-tagged ERK (Rolled)
Reagent: long dsRNA against Drosophila genes
Treatment: insulin stimulation versus unstimulated cells; dose and duration not given
Read-out: 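Antibody staining for doubly phosphorylated ERK divided by ERK-YFP signal, as plate z-scores, in insulin-treated and untreated cells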
Scale: replicate 1, z-score of dpERK with insulin and replicate 2, z-score of dpERK with insulin: higher = more active ERK per ERK-YFP after insulin; replicate 1, z-score of dpERK under basal conditions: higher = more basal active ERK per ERK-YFP; replicate 1, z-score of ERK-YFP with insulin: higher = more YFP-tagged ERK signal
In all, the deposit lists about 23,000 reagents; this is an unselected part of those with a known target gene and a result. 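Extra replicates exist only for a retested subset of genes; insulin dose and duration not given; both raised and lowered dpERK matter.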 Not given: the amount of reagent, the time to read-out.

| gene | DRSC id | replicate 1, z-score of dpERK with insulin | replicate 2, z-score of dpERK with insulin | replicate 1, z-score of dpERK under basal conditions | replicate 1, z-score of ERK-YFP with insulin |
| --- | --- | --- | --- | --- | --- |
| MED4 (GeneID 38799) | DRSC11014 | 3.23 | 2.84 | -0.74 | -1.38 |
| CG9672 (GeneID 32651) | DRSC20201 | 0.72 | 0.07 | -0.89 | 0.42 |
| CG34231 (GeneID 5740811) | DRSC05323 | 0 | 0.59 | 0.22 | 0.25 |
| Zip89B (GeneID 41975) | DRSC16128 | 0.2 | 0.49 | -0.16 | 0.11 |
| Su(z)12 (GeneID 48071) | DRSC11293 | -0.35 | -1.5 | 0.45 | -0.14 |
| dao (GeneID 34891) | DRSC01960 | -0.66 | -0.24 | -1.53 | 0.32 |
| mTor (GeneID 47396) | DRSC02811 | 2.75 | 1.69 | -2.45 | -0.73 |
| Taf11 (GeneID 34293) | DRSC03448 | 0.62 | 0.82 | 0.05 | -0.32 |
| Pex5 (GeneID 31141) | DRSC18552 | 0.34 | 0.08 | 0.36 | 0.24 |
| CG3224 (GeneID 31600) | DRSC18295 | 0.33 | 1.2 | 0.19 | 0.37 |
| CG43318 (GeneID 12798422) | DRSC14999 | 0.89 | 0.34 | 0.83 | 0.03 |
| CG5089 (GeneID 36859) | DRSC06914 | 0.18 | 0.25 | -0.13 | -0.02 |
| DnaJ-H (GeneID 34707) | DRSC03273 | 0.27 | 0.84 | -0.24 | -0.18 |
| a10 (GeneID 39906) | DRSC11319 | -0.94 | -0.01 | -0.81 | 0.91 |
| Optix (GeneID 44108) | DRSC05078 | 1.13 | 1.13 | 1.04 | 0.84 |
| Optix (GeneID 44108) | DRSC07484 | -0.08 | -0.44 | 0.77 | 0.02 |
| Optix (GeneID 44108) | DRSC21963 | 0.58 | 0.4 | 0.27 | -0.66 |
| Gpo3 (GeneID 34776) | DRSC01978 | 0.71 | -0.78 | -0.72 | 0.19 |
| Ns1 (GeneID 42060) | DRSC15529 | -1.61 | -0.85 | -0.29 | -0.61 |
| CG14480 (GeneID 36988) | DRSC06452 | 0.44 | 0.07 | 0.17 | 0.09 |
| CG5715 (GeneID 42895) | DRSC15860 | -0.23 | 0.21 | 0.92 | 0.2 |

Sorted by “replicate 2, z-score of dpERK with insulin” (lowest first): some entries from above.
| gene | DRSC id | replicate 1, z-score of dpERK with insulin | replicate 2, z-score of dpERK with insulin | replicate 1, z-score of dpERK under basal conditions | replicate 1, z-score of ERK-YFP with insulin |
| --- | --- | --- | --- | --- | --- |
| Ns1 (GeneID 42060) | DRSC15529 | -1.61 | -0.85 | -0.29 | -0.61 |
| Gpo3 (GeneID 34776) | DRSC01978 | 0.71 | -0.78 | -0.72 | 0.19 |

The list goes on:
| gene | DRSC id | replicate 1, z-score of dpERK with insulin | replicate 2, z-score of dpERK with insulin | replicate 1, z-score of dpERK under basal conditions | replicate 1, z-score of ERK-YFP with insulin |
| --- | --- | --- | --- | --- | --- |
| mRpS11 (GeneID 42061) | DRSC15732 | -0.01 | -1.48 | -0.18 | 1.29 |
| CG8031 (GeneID 41601) | DRSC16364 | -0.13 | 0.12 | -1.16 | -0.97 |
| CG18190 (GeneID 37179) | DRSC06714 | 0.17 | -0.16 | -0.49 | -0.08 |
| CG34176 (GeneID 5740391) | DRSC00435 | 0.9 | 0.6 | 0.52 | 0.5 |
| bocks (GeneID 41162) | DRSC16489 | -1.08 | -0.45 | 0.14 | 1.27 |
| CG2145 (GeneID 32027) | DRSC19835 | 0.13 | -0.18 | -0.94 | 0.03 |
| CG42680 (GeneID 10178899) | DRSC01399 | 0.22 | -0.05 | -0.95 | 0 |
| Pdp (GeneID 31683) | DRSC17825 | 1.13 | 1.26 | 0.8 | 0.17 |
| CG30369 (GeneID 246572) | DRSC21996 | -0.29 | -0.5 | 1.32 | 0.31 |
| Fbp1 (GeneID 39566) | DRSC11166 | -3 | -2.49 | -0.52 | -2.02 |
| Cph (GeneID 31660) | DRSC17507 | -0.1 | -1.4 | 0.12 | 0.71 |
| Cph (GeneID 31660) | DRSC18434 | 0.73 | 1.36 | 0.32 | 0.16 |
| ens (GeneID 38491) | DRSC08454 | 0.17 | -0.9 | -0.56 | 0.36 |
| Gclm (GeneID 248194) | DRSC15677 | -0.54 | 0.48 | 0.44 | -0.3 |
| CG31544 (retired record) (GeneID 318792) | DRSC12466 | 0.21 | 1.66 | 1.1 | -0.2 |
| CG31251 (GeneID 318645) | DRSC16247 | -0.54 | -1.03 | 0.63 | 2.08 |
| Cyp6t2Psi (GeneID 3772355) | DRSC01840 | -0.4 | 2.59 | -0.17 | 0.26 |
| Atg12 (GeneID 39383) | DRSC09803 | 0.28 | 0.34 | -1.26 | 0.48 |
